Assay [1] deals with T1, B Cell Receptor Associated Protein 31 with C-terminal FLAG tag (BCAP31-FLAG) (UniProt P51572).
T1 sequence: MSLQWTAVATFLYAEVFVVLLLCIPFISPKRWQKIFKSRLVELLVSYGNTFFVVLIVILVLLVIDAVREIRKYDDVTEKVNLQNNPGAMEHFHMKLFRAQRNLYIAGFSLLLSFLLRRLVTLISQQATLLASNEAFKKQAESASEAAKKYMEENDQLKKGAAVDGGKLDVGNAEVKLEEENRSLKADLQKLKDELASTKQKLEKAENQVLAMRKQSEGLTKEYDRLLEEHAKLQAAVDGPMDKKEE
The assay can be described thus: co-IP; transfected COS-7 cells; lysis in 50 mmol/L Tris pH 7.5, 150 mmol/L NaCl, 1% Nonidet P-40, 1 mmol/L EDTA, 0.25% deoxycholate; 1 ug antibody or control IgG at 4 C overnight, protein-G beads; western blot.

Chains of the proteins cited; added tags and fusions are not shown.
UniProt P62491: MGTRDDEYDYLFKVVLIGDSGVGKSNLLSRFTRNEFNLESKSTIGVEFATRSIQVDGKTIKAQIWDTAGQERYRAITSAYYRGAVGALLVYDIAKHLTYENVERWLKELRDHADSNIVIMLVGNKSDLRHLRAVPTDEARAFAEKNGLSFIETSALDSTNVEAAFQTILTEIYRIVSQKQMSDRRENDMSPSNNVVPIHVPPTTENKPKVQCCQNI

The target in assay [2] is T2, B Cell Receptor Associated Protein 31 (BCAP31), endogenous (human (endogenous in MDA-MB-231 and MDA-MB-157)) (UniProt P51572).
T2 sequence: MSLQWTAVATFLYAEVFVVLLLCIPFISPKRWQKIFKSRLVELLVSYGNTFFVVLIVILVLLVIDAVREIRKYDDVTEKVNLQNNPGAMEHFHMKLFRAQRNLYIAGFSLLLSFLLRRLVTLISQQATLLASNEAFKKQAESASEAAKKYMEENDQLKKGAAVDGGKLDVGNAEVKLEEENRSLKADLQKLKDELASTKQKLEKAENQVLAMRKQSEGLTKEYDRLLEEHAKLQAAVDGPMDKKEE
The assay can be described thus: co-IP; endogenous proteins in lysates of MDA-MB-231 or MDA-MB-157 cells; same lysis buffer, 1 ug antibody or control IgG at 4 C overnight, protein-G beads; western blot; for the EGFR IP of Figure 6I control or BCAP31-knockdown MDA-MB-231 cells. On the technique in general: A western blot detects proteins with antibodies after separation by electrophoresis.

Another assay has as its target RAB11-HA (UniProt P62491). As to the kind of experiment: co-IP; transfected COS-7 cells; lysis in 50 mmol/L Tris pH 7.5, 150 mmol/L NaCl, 1% Nonidet P-40, 1 mmol/L EDTA, 0.25% deoxycholate; 1 ug antibody or control IgG at 4 C overnight, protein-G beads; western blot.
The target of assay [3] is RAB11, endogenous (human (endogenous in MDA-MB-231)) (UniProt P62491). The assay can be described thus: co-IP; endogenous proteins in lysates of MDA-MB-231 or MDA-MB-157 cells; same lysis buffer, 1 ug antibody or control IgG at 4 C overnight, protein-G beads; western blot; for the EGFR IP of Figure 6I control or BCAP31-knockdown MDA-MB-231 cells.

No constants are given. Whether binding was seen depends on the method and setting. Binding seen in cells or lysates may run through a third protein. Some binding calls cover weakened binding; strength is not graded here. For some of these results: Tags and fused reporters may be left off the sequences shown.

Regarding “epidermal growth factor receptor (EGFR), exogenous (from UniProt P00533 25-1210)”, the binding entry in assay [1] is given as “binds”. Turning to “epidermal growth factor receptor (EGFR), endogenous (from UniProt P00533 25-1210)”, the binding entry in assay [2] is listed as “binds”.

B1: B Cell Receptor Associated Protein 31 with C-terminal FLAG tag (BCAP31-FLAG) (protein, UniProt P51572-1 1-246)
chain: MSLQWTAVATFLYAEVFVVLLLCIPFISPKRWQKIFKSRLVELLVSYGNTFFVVLIVILVLLVIDAVREIRKYDDVTEKVNLQNNPGAMEHFHMKLFRAQRNLYIAGFSLLLSFLLRRLVTLISQQATLLASNEAFKKQAESASEAAKKYMEENDQLKKGAAVDGGKLDVGNAEVKLEEENRSLKADLQKLKDELASTKQKLEKAENQVLAMRKQSEGLTKEYDRLLEEHAKLQAAVDGPMDKKEE
Turning to B1, in the assay with RAB11-HA, the binding result was “binds”.

B2: B Cell Receptor Associated Protein 31 (BCAP31), endogenous (protein, UniProt P51572 1-246)
chain: MSLQWTAVATFLYAEVFVVLLLCIPFISPKRWQKIFKSRLVELLVSYGNTFFVVLIVILVLLVIDAVREIRKYDDVTEKVNLQNNPGAMEHFHMKLFRAQRNLYIAGFSLLLSFLLRRLVTLISQQATLLASNEAFKKQAESASEAAKKYMEENDQLKKGAAVDGGKLDVGNAEVKLEEENRSLKADLQKLKDELASTKQKLEKAENQVLAMRKQSEGLTKEYDRLLEEHAKLQAAVDGPMDKKEE
Regarding B2, the binding result in assay [3] was “binds”.

Source of the values: article PMC6771250.
